Measured data: PubChem BioAssay AID1259254 (NCATS, 2017)

Screen: 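Finding genes that stop cells copying their DNA twice in one cycle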 (primary screen)
Cells: human HCT116 colorectal cancer cells
Reagents: single siRNA against human genes
Duration: 3 days
Measured: 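Imaged Hoechst DNA stain sorts each cell into a cycle phase by DNA amount; per plate, G2 fraction set to 0% for non-targeting and 100% for GMNN siRNA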
Direction: G2 robust z-score and G2 cells, % of GMNN control: higher = more G2 cells, more excess DNA replication
Hit rule: 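An siRNA counts as active if its G2 robust z-score lies at least 5 MADs above the screen median; here such calls match roughly 38% of GMNN control or more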
The deposit covers about 59,000 reagents; below is a random part of them. Over the whole deposit, about 1,550 (2.6%) are marked active. 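G2 share is only a proxy for re-replication; each gene was hit by three separate siRNAs, and active genes were retested.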 Unmarked entries are inactive. Reagents against one gene are numbered here. Not all columns of the deposit are shown. Reagent sequences are not shown. Not given: the amount of reagent.

{"gene": "TMOD3", "siRNA no.": 1, "G2 robust z-score": 0.806, "G2 cells, % of GMNN control": 8.64}
{"gene": "TMOD3", "siRNA no.": 2, "G2 robust z-score": 4.23, "G2 cells, % of GMNN control": 32.7}
{"gene": "TMOD3", "siRNA no.": 3, "G2 robust z-score": -0.165, "G2 cells, % of GMNN control": 1.8}
{"gene": "IL7R", "siRNA no.": 1, "G2 robust z-score": -0.776, "G2 cells, % of GMNN control": -2.49}
{"gene": "IL7R", "siRNA no.": 2, "G2 robust z-score": 0.00857, "G2 cells, % of GMNN control": 3.03}
{"gene": "IL7R", "siRNA no.": 3, "G2 robust z-score": -0.149, "G2 cells, % of GMNN control": 1.92}
{"gene": "DUSP13B", "siRNA no.": 1, "G2 robust z-score": -0.959, "G2 cells, % of GMNN control": -3.78}
{"gene": "DUSP13B", "siRNA no.": 2, "G2 robust z-score": -0.84, "G2 cells, % of GMNN control": -2.94}
{"gene": "DUSP13B", "siRNA no.": 3, "G2 robust z-score": 0.488, "G2 cells, % of GMNN control": 6.4}
{"gene": "GLRA2", "siRNA no.": 1, "G2 robust z-score": 0.366, "G2 cells, % of GMNN control": 5.54}
{"gene": "GLRA2", "siRNA no.": 2, "G2 robust z-score": 0.129, "G2 cells, % of GMNN control": 3.88}
{"gene": "GLRA2", "siRNA no.": 3, "G2 robust z-score": 0.947, "G2 cells, % of GMNN control": 9.63}

Laid out differently: results already given
GLRA2 #1: G2 robust z-score = 0.366; G2 cells, % of GMNN control = 5.54
GLRA2 #2: G2 robust z-score = 0.129; G2 cells, % of GMNN control = 3.88
GLRA2 #3: G2 robust z-score = 0.947; G2 cells, % of GMNN control = 9.63

Continued.
{"gene": "PYGM", "siRNA no.": 1, "G2 robust z-score": 0.159, "G2 cells, % of GMNN control": 4.09}
{"gene": "PYGM", "siRNA no.": 2, "G2 robust z-score": 1.41, "G2 cells, % of GMNN control": 12.9}
{"gene": "PYGM", "siRNA no.": 3, "G2 robust z-score": 0.0611, "G2 cells, % of GMNN control": 3.4}
{"gene": "TACSTD2", "siRNA no.": 1, "G2 robust z-score": 2.8, "G2 cells, % of GMNN control": 22.6}
{"gene": "TACSTD2", "siRNA no.": 2, "G2 robust z-score": -0.0213, "G2 cells, % of GMNN control": 2.82}
{"gene": "TACSTD2", "siRNA no.": 3, "G2 robust z-score": -0.514, "G2 cells, % of GMNN control": -0.649}
{"gene": "KCNJ9", "siRNA no.": 1, "G2 robust z-score": 1.47, "G2 cells, % of GMNN control": 13.3}
{"gene": "KCNJ9", "siRNA no.": 2, "G2 robust z-score": 1.32, "G2 cells, % of GMNN control": 12.2}
{"gene": "KCNJ9", "siRNA no.": 3, "G2 robust z-score": -0.316, "G2 cells, % of GMNN control": 0.745}
{"gene": "NKX3-2", "siRNA no.": 1, "G2 robust z-score": 0.0404, "G2 cells, % of GMNN control": 3.25}
{"gene": "NKX3-2", "siRNA no.": 2, "G2 robust z-score": 0.12, "G2 cells, % of GMNN control": 3.81}
{"gene": "NKX3-2", "siRNA no.": 3, "G2 robust z-score": 1.51, "G2 cells, % of GMNN control": 13.6}
{"gene": "SEC14L5", "siRNA no.": 1, "G2 robust z-score": 1.12, "G2 cells, % of GMNN control": 10.8}
{"gene": "SEC14L5", "siRNA no.": 2, "G2 robust z-score": -0.35, "G2 cells, % of GMNN control": 0.506}
{"gene": "SEC14L5", "siRNA no.": 3, "G2 robust z-score": -1.03, "G2 cells, % of GMNN control": -4.27}
{"gene": "EIF2AK4", "siRNA no.": 1, "G2 robust z-score": -0.64, "G2 cells, % of GMNN control": -1.53}
{"gene": "EIF2AK4", "siRNA no.": 2, "G2 robust z-score": 0.0419, "G2 cells, % of GMNN control": 3.26}
{"gene": "EIF2AK4", "siRNA no.": 3, "G2 robust z-score": 2.63, "G2 cells, % of GMNN control": 21.5}
